According to PubChem BioAssay AID504834 (National Center for Advancing Translational Sciences (NCATS), 2011):
Among all 320,000 compounds or so, about 22,000 (6.9%) were called active. The inconclusive results got no clear call from the source; some entries with a clear call stand among them for comparison. Calls come from the whole dose curve; as a rule, active = well fitted inhibition curve with a large enough effect; inconclusive = small, poorly fitted or top-dose-only effect, or another doubt; inactive = no such curve, though single readings can be large or run the other way. Where the call is inconclusive, the potency comes from a doubtful curve fit.

assay: Primary qHTS for delayed death inhibitors of the malarial parasite plastid, 96 hour incubation; details: P. falciparum luciferase reporter growth; series mostly up to 28.7 µM; activity change, negative = inhibition: at the top concentration
Method in brief: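 Luminescence readout: decreased luciferase signal marks inhibited growth of reporter-expressing P. falciparum in infected red cells (2% hematocrit, 0.05% parasitemia final), exposed to compound two generations (96 h, 37 C, 5% CO2).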
% is set by controls: 0 for no effect and ±100 for the full control effect; potency is the fitted concentration of half-maximal effect.

| SMILES | activity change, negative = inhibition | Potency |
| --- | --- | --- |
| COc1ccc(C(=O)N/N=C/c2ccccc2OC(=O)c2ccccc2)cc1 | inactive: 1.89% | – |
| O=C(Nc1cc(C(F)(F)F)ccc1N1CCOCC1)C1=NN(c2ccccc2)C(=O)CC1 | – | inconclusive: 8.28 µM [inhibitor, partial curve, poor fit] |
| Cc1cc(C)c(-c2c(O)c3cnn(-c4ccccc4)c3[nH]c2=O)c(C)c1 | – | inconclusive: 13.1 µM [inhibitor, partial curve, poor fit] |
| Cc1cc(Cl)ccc1OCCCC(=O)N1CCCCC1 | – | inconclusive: 0.0928 µM [inhibitor, full curve, poor fit] |
| CCOc1cc(N2CCOCC2)c(OCC)cc1NC(=O)Cc1cccc(OC)c1 | – | inconclusive: 1.04 µM [inhibitor, partial curve, poor fit] |
| Cc1ccc(N/N=C2\CC(=O)c3ccccc32)cc1Cl | – | active: 2.94 µM |
| Cn1c(=O)c(=O)n(C)c2cc(S(=O)(=O)CCC(=O)Nc3ccc(F)cc3)ccc21 | – | inconclusive: 3.29 µM [inhibitor, full curve] |
| COc1c(N2CCN(C(=S)Nc3ccc(F)cc3)C(C)C2)c(F)cc2c(=O)c(C(=O)O)cn(C3CC3)c12 (stereo not drawn) | – | inconclusive: 2.62 µM [inhibitor, full curve] |
| Oc1ccc2ccccc2c1CN1CCCC1 | inactive: 37.6% | – |
| O=C(Nc1cccc(NC(=O)c2ccc(-c3cccc(Br)c3)o2)c1)c1ccco1 | inactive: 210% | – |
| O=C1COc2ccc(C(=O)CSc3nnc(NCc4ccccc4)s3)cc2N1 | – | inconclusive: 4.65 µM [inhibitor, partial curve] |
| COc1ccccc1C1NC(c2ccccc2OC)C(C)C(=O)C1C (stereo not drawn) | – | inconclusive: 10.4 µM [inhibitor, partial curve, poor fit] |
| Cc1[nH]c2ccc(C(=O)NC3CCCC3)cc2c1C | inactive: -26.9% | – |
| C=CCNS(=O)(=O)c1cc(S(=O)(=O)NCC=C)c(OC)cc1OC | – | active: 2.94 µM |
| O=C(CS(=O)Cc1ccccc1Cl)Nc1ccccc1Cl (stereo not drawn) | inactive: 38.3% | – |
| COc1ccc(CCNC(=O)COc2cc(O)c3c(c2)OC(C)(C)CC3=O)cc1 | – | inconclusive: 16.5 µM [inhibitor, partial curve, poor fit] |
| O=Cc1ccc(Sc2nnc(-c3ccccc3)o2)c([N+](=O)[O-])c1 | – | inconclusive: 14.7 µM [inhibitor, partial curve, poor fit] |
| Cc1sc2nc(C3CC3)nc(N3CCN(C(=O)c4ccc(F)cc4)CC3)c2c1C | inactive: 3.24% | – |
| CC(/C=C1\SC(=S)N(NC(=O)c2cccc(O)c2)C1=O)=C\c1ccccc1 | – | inconclusive: 9.28 µM [inhibitor, single point] |
| COc1ccc(/C=N/Nc2cc(C)nc(N3CCOCC3)n2)cc1OC | – | inconclusive: 18.5 µM [inhibitor, single point] |
| Cc1ccc(/C=C/C(=O)c2ccccc2O)cc1 | inactive: 23.6% | – |

| SMILES | activity change, negative = inhibition | Potency |
| --- | --- | --- |
| COc1ccc(CNC(=O)c2cccc(S(=O)(=O)N3CCN(C)CC3)c2)cc1 | – | inconclusive: 8.28 µM [inhibitor, single point] |
| COc1cccc(N2CCN(C(=O)c3cccn4c(=O)c5c(C)c(C)sc5nc34)CC2)c1 | – | inconclusive: 2.08 µM [inhibitor, partial curve, poor fit] |
| CCc1ccc(NC(=S)Nc2cccc3cnccc23)cc1 | – | inconclusive: 16.5 µM [inhibitor, single point] |
| O=C(c1cc2ccccc2o1)N1CCN(S(=O)(=O)c2c(F)cccc2F)CC1 | – | inconclusive: 13.1 µM [inhibitor, partial curve] |
| CN1CCN(c2ccc([N+](=O)[O-])c(-n3nc(-c4ccccc4)c4ccccc4c3=O)c2)CC1 | – | active: 8.28 µM |
| Cn1nc(C(F)(F)F)c(/C=N/OC(=O)c2ccccc2Cl)c1SCc1ccccc1Cl | – | inconclusive: 11.7 µM [inhibitor, partial curve, poor fit] |
| COc1cc(CC(=O)OCC(=O)NCc2ccc(C)cc2)cc(OC)c1OC | – | inconclusive: 18.5 µM [inhibitor, single point] |
| O=C(O)COCc1nc2ccccc2[nH]1 | – | inconclusive: 2.62 µM [inhibitor, full curve, poor fit] |
| Cc1cc(/C=C(\C#N)C(=O)Nc2ccccc2)c(C)n1-c1ccc(C(=O)O)cc1 | – | inconclusive: 8.28 µM [inhibitor, partial curve, poor fit] |
| COc1ccc(CCNC(=O)CSc2nc(O)c(CCC(C)C)c(=O)[nH]2)cc1OC | – | inconclusive: 11.7 µM [inhibitor, single point] |
| O=C(CCC(=O)N1CC2C[C@@H](C1)Cn1c2cccc1=O)NCCc1ccccc1 | – | inconclusive: 18.5 µM [inhibitor, single point] |
| Cc1nc2ccc([N+](=O)[O-])cc2c(=O)n1Cc1ccc(Br)cc1 | – | active: 3.29 µM |
| COc1ccc(C)cc1NC(=O)c1nnn(Cc2cccc(C(F)(F)F)c2)c1N | – | active: 13.1 µM |
| O=C(c1ccco1)N1N=C(c2cccs2)CC1c1ccco1 (stereo not drawn) | – | inconclusive: 18.5 µM [inhibitor, single point] |
| Cn1c(CCNS(=O)(=O)c2ccc(F)cc2)nnc1SCc1cccnc1 | – | inconclusive: 6.57 µM [inhibitor, partial curve] |
| CC(NC(=O)c1ccc(CS(=O)(=O)c2ccc(Cl)cc2)o1)c1ccc2c(c1)OCCO2 (stereo not drawn) | – | inconclusive: 18.5 µM [inhibitor, single point] |
| CC(OC(=O)CC1CCCC1)C(=O)Nc1ccc(S(N)(=O)=O)cc1 (stereo not drawn) | inactive: 14.7% | – |
| Cc1ccccc1NC(c1cccc(Cl)c1)c1nnnn1C1CCCCC1 (stereo not drawn) | inactive: -7.75% | – |
| COc1ccccc1NC(=O)c1ccc(CN2CCOCC2)cc1 | – | inconclusive: 13.1 µM [inhibitor, single point] |
| O=C(CCS(=O)(=O)c1ccc(Br)cc1)NC1CCCCCC1 | – | active: 11.7 µM |
| COc1ccc(C(=O)Cn2c3ccccc3n3nc(CCC(=O)O)c(=O)nc23)cc1OC | – | inconclusive: 18.5 µM [inhibitor, single point] |

3 records picked at random from the list so far, as already listed:

| SMILES | activity change, negative = inhibition | Potency |
| --- | --- | --- |
| COc1ccc(CNC(=O)c2cccc(S(=O)(=O)N3CCN(C)CC3)c2)cc1 | – | inconclusive: 8.28 µM [inhibitor, single point] |
| CN1CCN(c2ccc([N+](=O)[O-])c(-n3nc(-c4ccccc4)c4ccccc4c3=O)c2)CC1 | – | active: 8.28 µM |
| COc1ccc(CCNC(=O)CSc2nc(O)c(CCC(C)C)c(=O)[nH]2)cc1OC | – | inconclusive: 11.7 µM [inhibitor, single point] |
